{"source": "PubChem BioAssay AID504467", "about": "(National Center for Advancing Translational Sciences (NCATS), 2011)", "note": "About 7,700 (2.3%) of roughly 330,000 compounds were called active. This list was built around the results that the source calls inconclusive (neither active nor inactive); the mix of calls is not that of the screen. The call rests on the fitted dose curve; in most records, active means well fitted inhibition curve with a large enough effect; inconclusive means small, poorly fitted or top-dose-only effect, or effect the other way; inactive means flat fitted curve, though single readings scatter. Potencies of inconclusive entries are doubtful fits and often do not repeat. On the % scale 0 is the no-effect control and ±100 the full control effect; potency means the concentration at half of the fitted maximal effect."}
{"test": "qHTS screen for small molecules that inhibit ELG1-dependent DNA repair in human embryonic kidney (HEK293T) cells expressing luciferase-tagged ELG1; further: nearly all actives have a fitted effect of over 55% in size", "conditions": "HEK293T ELG1-luciferase reporter, luminescence, 16 h, DNA damage induced by 5-fluorouridine; activity change, negative = inhibition: at 46.1 µM (top of the series)", "how_it_was_run": "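Step one: seed 2,000 cells per well. Step two: pin-transfer compound or DMSO alongside 5-fluorouridine. Step three: incubate 16 hr, 37 °C, 5% CO2. Step four: add ONE-Glo, wait 30 min, read luminescence.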"}
{"smiles": "COc1ccc(CC(=O)N[C@@H]2c3ccccc3CC[C@H]2OCc2ccccc2)cc1", "Potency": "inconclusive: 29.1 µM [inhibitor, single point]"}
{"smiles": "O=C(O)/C=C/c1cccc(NC(=O)c2ccccc2)c1", "Potency": "inconclusive: 5.17 µM [inhibitor, partial curve, poor fit]"}
{"smiles": "CC1(C(=O)O)CCC(C(=O)Nc2ccccc2O)C1(C)C", "note": "(stereo unspecified)", "Potency": "inconclusive: 32.6 µM [activator, partial curve, poor fit]"}
{"smiles": "COCCNC(=O)CCCC(=O)NCCOC", "activity change, negative = inhibition": "inactive: -5.12%"}
{"smiles": "O=C(CS(=O)(=O)c1ccccc1)Nc1nnc(Cc2ccccc2)s1", "activity change, negative = inhibition": "inactive: -5.22%"}
{"smiles": "CCCn1c(N)c(C(=O)CN(C)CC(=O)Nc2c(C)cc(C)cc2C)c(=O)[nH]c1=O", "Potency": "inconclusive: 16.4 µM [inhibitor, single point]"}
{"smiles": "CS(=O)(=O)c1ccc(-c2cccc(NC(=O)c3ccco3)c2)nn1", "Potency": "inconclusive: 32.6 µM [inhibitor, partial curve, poor fit]"}
{"smiles": "COC(=O)Cc1ccc(NC(=S)N2CCCC(C)C2)cc1", "note": "(stereo unspecified)", "Potency": "inconclusive: 9.2 µM [activator, partial curve]"}
{"smiles": "COc1ccc(NC(=O)COc2ccccc2Cc2ccccc2)cc1S(=O)(=O)N1CCOCC1", "Potency": "inconclusive: 29.1 µM [inhibitor, single point]"}
{"smiles": "Cc1ccc(NS(=O)(=O)c2ccc3c(c2)NC(=O)CO3)cc1Cl", "activity change, negative = inhibition": "inactive: 4.24%"}
{"smiles": "c1ccc(N2CCN(c3cnc4ccccc4n3)CC2)cc1", "Potency": "inconclusive: 2.59 µM [activator, partial curve]"}
{"smiles": "CCCC(=O)N1CCN(Cc2nc3cc([N+](=O)[O-])ccc3n2C)CC1", "activity change, negative = inhibition": "inactive: 1.2%"}
{"smiles": "Cn1c(SCC(=O)c2ccccc2)nnc1C1CC1", "Potency": "inconclusive: 18.4 µM [activator, single point]"}
{"smiles": "O=C(c1cc2cc(F)ccc2[nH]1)N1CCCC(Nc2ccc(F)cc2)C1", "note": "(stereo unspecified)", "activity change, negative = inhibition": "inactive: 0.982%"}
{"smiles": "CC1=CC2(O)OCCN(CCO)C2=CC1=O", "note": "(stereo unspecified)", "activity change, negative = inhibition": "inactive: 11.5%"}
{"smiles": "C/C(=N\\NC(=O)Cc1ccccc1)c1cccnc1", "Potency": "inconclusive: 23.1 µM [activator, single point]"}
{"smiles": "COc1ccc(OC)c(Cc2nnc(CCC(=O)N3CCN(C4CCCC4)CC3)o2)c1", "Potency": "inconclusive: 23.1 µM [activator, partial curve]"}
{"smiles": "CCC(=O)Oc1ccc(C/C(=N\\O)c2ccc(O)cc2O)o1", "Potency": "inconclusive: 14.6 µM [inhibitor, single point]"}
{"smiles": "O=C(CSc1nnc(-c2ccncc2)n1Cc1ccco1)Nc1ccccc1Cl", "Potency": "inconclusive: 32.6 µM [activator, partial curve, poor fit]"}
{"smiles": "CC(Sc1nncn1C)C(=O)NCCC1=CCCCC1", "note": "(stereo unspecified)", "Potency": "inconclusive: 29.1 µM [activator, single point]"}
{"smiles": "COCCn1c(COc2ccc(OC)cc2)nc2ccccc21", "Potency": "inconclusive: 25.9 µM [activator, partial curve, poor fit]"}
{"smiles": "Cc1cc(N)n2nc(C)c(-c3ccccc3)c2n1", "activity change, negative = inhibition": "inactive: 5.53%"}
{"smiles": "Cc1ccc(N2C(=O)[C@@H]3[C@H](C2=O)[C@H]2C=C(C(=O)c4ccccc4)C=CN2[C@@H]3C(=O)c2ccc(Cl)cc2)cc1", "Potency": "inconclusive: 23.1 µM [activator, single point]"}
{"smiles": "Cc1nc(Nc2nc(CSc3nc4ccccc4[nH]3)cc(=O)[nH]2)nc2ccccc12", "Potency": "active: 13 µM"}
{"smiles": "CC(=O)c1ccc(NC(=O)CC2Nc3cccc4cccc(c34)NC2=O)cc1", "note": "(stereo unspecified)", "Potency": "active: 20.6 µM"}
{"smiles": "O=C(CN1CCCC1)Nc1ccc([N+](=O)[O-])cc1", "activity change, negative = inhibition": "inactive: -3.08%"}
{"smiles": "O=C(Nc1cccc(F)c1)Nc1cccc(Cl)c1", "Potency": "inconclusive: 20 µM [activator, single point]"}
{"smiles": "COc1cccc(CN(CC(=O)NCC2CCCO2)C(=O)CCC(=O)Nc2cc(C)on2)c1", "note": "(stereo unspecified)", "activity change, negative = inhibition": "inactive: -2.61%"}
{"smiles": "CN(Cc1ccccc1)C(=O)c1nc2ccccn2c1CN1CCC(N2CCOCC2)CC1", "activity change, negative = inhibition": "inactive: -0.847%"}
{"smiles": "CC(c1ccccc1)N1C(=O)/C(=C/c2ccncc2)SC1=S", "note": "(stereo unspecified)", "Potency": "inconclusive: 23.1 µM [inhibitor, partial curve, poor fit]"}
{"smiles": "Cc1ccccc1C(=O)Nc1ccnn1C1CCN(Cc2cccnc2)CC1", "activity change, negative = inhibition": "inactive: -1.82%"}
{"smiles": "CCCNC(=O)C(=O)Nc1cc2c3c(c1)CCC(=O)N3CCC2", "Potency": "inconclusive: 18.3 µM [activator, partial curve]"}
{"smiles": "COC(=O)c1ccc(OCC(O)CN2CCN(C(=O)c3ccco3)CC2)cc1", "note": "(stereo unspecified)", "Potency": "inconclusive: 0.116 µM [inhibitor, single point]"}
{"smiles": "COc1ccc(/C=C2\\SC(=S)N(CCC(=O)NC3C=CS(=O)(=O)C3)C2=O)cc1", "note": "(stereo unspecified)", "activity change, negative = inhibition": "inactive: 27.8%"}
{"smiles": "O=C(Nc1ccc(NC(=O)N2CCN(c3ccccc3O)CC2)cc1)N1CCN(c2ccccc2O)CC1", "Potency": "inconclusive: 16.4 µM [inhibitor, single point]"}
{"smiles": "COc1ccc(OC)c(C2(O)CSC(=Nc3cccnc3)N2Cc2ccco2)c1", "note": "(stereo unspecified)", "Potency": "inconclusive: 29.1 µM [inhibitor, single point]"}
{"smiles": "Cc1ccc(-c2nnc(SCC(C)C)n2C)cc1", "Potency": "inconclusive: 17.8 µM [activator, partial curve, poor fit]"}
{"smiles": "COc1ccc(OC)c(/C=N/NC(=O)c2cc3c(OC)cc(OC)cc3[nH]2)c1", "Potency": "active: 20.6 µM"}
{"smiles": "O=C(COc1cccnc1[N+](=O)[O-])c1c[nH]c2ccccc12", "Potency": "inconclusive: 32.6 µM [activator, partial curve, poor fit]"}
{"smiles": "O=C(CSc1ncccn1)NCc1ccc(Cl)cc1", "Potency": "inconclusive: 29.1 µM [activator, single point]"}
{"smiles": "CCOC(=O)C1CCCN(S(=O)(=O)NC[C@H]2O[C@@H](n3cnc4c(N)ncnc43)[C@H](O)[C@@H]2O)C1", "note": "(stereo partly specified)", "activity change, negative = inhibition": "inactive: 2.21%"}
{"smiles": "O=C(Nc1nc(-c2cc3ccccc3o2)cs1)c1ccc(S(=O)(=O)N2CCCC2)cc1", "Potency": "inconclusive: 29.1 µM [inhibitor, single point]"}
{"smiles": "CCN1CCN(c2ccc(NC(=O)c3cc4ccccc4cc3OC)cc2C)CC1", "Potency": "inconclusive: 13 µM [activator, partial curve]"}
{"smiles": "O=C(c1cccnc1)N1CCCC(Nc2ccc(F)cc2)C1", "note": "(stereo unspecified)", "activity change, negative = inhibition": "inactive: -4.73%"}
{"smiles": "CC(C)CCn1c(SCC(=O)NC2CCS(=O)(=O)C2)nc2cc(Cl)ccc2c1=O", "note": "(stereo unspecified)", "Potency": "inconclusive: 4.11 µM [activator, partial curve, poor fit]"}
{"smiles": "O=C(NNc1nc(-c2ccccc2)cs1)c1ccc(F)cc1", "Potency": "inconclusive: 11.6 µM [inhibitor, partial curve, poor fit]"}
{"smiles": "COc1ccccc1N(CCC#N)C(=O)CSc1ccc2c(c1)OCCO2", "Potency": "inconclusive: 15.8 µM [inhibitor, single point]"}
{"smiles": "O=[N+]([O-])c1nn(-c2ccc3c(c2)OCCO3)n(O)c1=NC1CCN(Cc2ccccc2)CC1", "Potency": "inconclusive: 0.58 µM [activator, full curve]"}
{"smiles": "CC(C(=O)Nc1ccc2c(c1)OCO2)c1ccc([N+](=O)[O-])cc1", "note": "(stereo unspecified)", "Potency": "inconclusive: 29.1 µM [inhibitor, single point]"}
{"smiles": "COc1ccc([N+](=O)[O-])cc1NC(=O)Cc1c(Cl)cccc1Cl", "Potency": "inconclusive: 18.4 µM [activator, single point]"}
{"smiles": "COc1ccccc1N1CCN(C(=O)c2cc3c(-c4ccc(Cl)cc4)nn(C)c3s2)CC1", "Potency": "active: 11.6 µM"}
{"smiles": "CCCCn1c(CN2CCN(c3ccccc3)CC2)nc2c1c(=O)n(C)c(=O)n2C", "Potency": "inconclusive: 14.6 µM [inhibitor, partial curve, poor fit]"}
{"smiles": "CCn1c(CSc2nc(C)cc(C)n2)nnc1SCC(=O)Nc1cccc2ccccc12", "activity change, negative = inhibition": "inactive: -13%"}
{"smiles": "CCOc1cc(Cl)c(NC(C)=O)cc1OCC", "activity change, negative = inhibition": "inactive: -23.3%"}
{"smiles": "COc1ccc(S(=O)(=O)N2CCCCCC2)cc1NC(=O)c1ccccc1", "Potency": "inconclusive: 29.1 µM [activator, single point]"}
{"smiles": "Cc1ccccc1Nc1nc(N)nc(COC(=O)CCC(=O)c2ccc(F)cc2)n1", "activity change, negative = inhibition": "inactive: 16.3%"}
{"smiles": "CCNC(=S)N1CCN(Cc2ccc3c(c2)OCO3)CC1", "activity change, negative = inhibition": "inactive: -4.98%"}
{"smiles": "O=NNc1nc2ccccc2n1Cc1ccccc1", "Potency": "inconclusive: 29.1 µM [inhibitor, single point]"}
{"smiles": "CCOc1ccc(NC(=S)N(CCc2c(C)[nH]c3ccccc23)Cc2cccnc2)cc1", "Potency": "inconclusive: 23.1 µM [inhibitor, partial curve, poor fit]"}
{"smiles": "COc1cc(/C=C2/SC(=O)NC2=O)ccc1Oc1ccc([N+](=O)[O-])cc1[N+](=O)[O-]", "activity change, negative = inhibition": "inactive: 15.4%"}
{"smiles": "O=C(NCc1ccccn1)Nc1ccc(F)cc1F", "Potency": "inconclusive: 18.3 µM [activator, single point]"}
{"smiles": "CCc1ccc(Nc2n[n+](-c3ccccc3)c(-c3ccc(OCc4ccccc4)cc3)s2)cc1", "Potency": "active: 13 µM"}
{"smiles": "Cc1ccc(C(=O)NCC(=O)N2CCN(c3cccc(Cl)c3)CC2)s1", "activity change, negative = inhibition": "inactive: 10.9%"}
{"smiles": "O=C(Nc1ccc2oc(Cc3ccc(Cl)cc3)nc2c1)c1cccnc1", "Potency": "inconclusive: 29.1 µM [inhibitor, single point]"}
{"smiles": "CC(Sc1nc2ccc(Br)cc2[nH]1)C(=O)O", "note": "(stereo unspecified)", "activity change, negative = inhibition": "inactive: 9.36%"}
{"smiles": "Cc1ccc(Sc2c(C(=O)Nc3ccc(F)cc3F)c(C(F)(F)F)nn2C)cc1", "Potency": "inconclusive: 3.55 µM [inhibitor, single point]"}
{"smiles": "CCCn1c(/C=C/c2ccco2)nc2ccccc21", "Potency": "inconclusive: 14.6 µM [activator, partial curve]"}
{"smiles": "CN1CCN(c2ccc(-c3cccc(NC(=O)COc4ccc(Cl)cc4)c3)nn2)CC1", "Potency": "inconclusive: 3.26 µM [activator, partial curve]"}
{"smiles": "Cc1cccc(NC(=O)C(CCC(N)=O)NC(=O)OCc2ccccc2)c1", "note": "(stereo unspecified)", "activity change, negative = inhibition": "inactive: 10.1%"}
{"smiles": "CCc1nnc(NC(=O)c2c(OC)cccc2OC)s1", "activity change, negative = inhibition": "inactive: 6.09%"}
{"smiles": "COc1ccccc1OCCCCCc1c(C)n[nH]c1C", "Potency": "inconclusive: 6.51 µM [activator, single point]"}
